Data from article PMC12914105.
Results are given in words; binding and its absence hold for the method and conditions named. In cells and extracts the contact can be indirect. Some results given as binding are weak or reduced against the parent protein; the word gives no strength.

Amino acid sequences for entries named in this document (tags omitted). Residues count along the entry.
UniProt P08134: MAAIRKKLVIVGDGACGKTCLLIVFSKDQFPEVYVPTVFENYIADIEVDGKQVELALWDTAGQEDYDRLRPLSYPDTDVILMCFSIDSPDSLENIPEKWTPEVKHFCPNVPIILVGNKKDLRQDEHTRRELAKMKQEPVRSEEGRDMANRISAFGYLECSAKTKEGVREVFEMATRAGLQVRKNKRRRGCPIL
UniProt P14625, residues 22-803: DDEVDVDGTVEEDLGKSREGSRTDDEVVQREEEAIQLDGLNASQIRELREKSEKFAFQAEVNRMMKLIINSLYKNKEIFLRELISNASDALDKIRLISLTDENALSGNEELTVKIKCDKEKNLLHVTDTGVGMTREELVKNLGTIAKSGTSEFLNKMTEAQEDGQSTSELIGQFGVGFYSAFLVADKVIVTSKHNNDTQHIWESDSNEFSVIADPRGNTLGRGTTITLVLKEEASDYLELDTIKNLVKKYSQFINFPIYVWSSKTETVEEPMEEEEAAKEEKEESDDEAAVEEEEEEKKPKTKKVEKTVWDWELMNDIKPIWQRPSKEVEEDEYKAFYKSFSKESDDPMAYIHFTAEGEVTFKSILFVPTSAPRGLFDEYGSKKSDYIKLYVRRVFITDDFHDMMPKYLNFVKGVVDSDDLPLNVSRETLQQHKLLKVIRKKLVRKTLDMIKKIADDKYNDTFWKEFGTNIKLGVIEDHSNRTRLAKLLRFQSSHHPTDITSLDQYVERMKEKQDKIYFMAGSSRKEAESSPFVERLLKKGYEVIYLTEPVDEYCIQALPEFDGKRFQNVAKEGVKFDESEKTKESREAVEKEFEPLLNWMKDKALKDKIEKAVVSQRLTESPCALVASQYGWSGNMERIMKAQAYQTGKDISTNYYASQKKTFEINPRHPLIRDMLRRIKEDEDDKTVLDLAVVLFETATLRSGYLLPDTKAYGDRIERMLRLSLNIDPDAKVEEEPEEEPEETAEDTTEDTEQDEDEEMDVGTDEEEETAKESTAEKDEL

What was measured:
[1] = molecular target: Flag-tagged RhoC (UniProt P08134); assay: co-IP; Flag-tagged RhoC overexpressed in LN229 cells, immunoprecipitated with an anti-Flag antibody (lysis buffer 137 mM NaCl, 20 mM Tris-HCl pH 8, 1% NP-40, 2 mM EDTA); HSP90B1 detected by Western blot
[2] = molecular target: heat shock protein 90 beta family member 1 (HSP90B1) (human (endogenous in LN229)) (UniProt P14625); assay: co-IP; anti-HSP90B1 antibody added to cell lysate (137 mM NaCl, 20 mM Tris-HCl pH 8, 1% NP-40, 2 mM EDTA), 4 °C overnight, Protein A/G PLUS-Agarose; RhoC detected by Western blot; IgG control; cell line not stated

| binding [1] | binding [2] | Substance |
| --- | --- | --- |
| binds | – | heat shock protein 90 beta family member 1 (HSP90B1) (from UniProt P14625 22-803) |
| – | binds | ras homolog family member C (RhoC) (from UniProt P08134 1-193) |
